Record: PubChem BioAssay AID1508597 (Cure First, 2020)
Assay: 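Knock-downs altering ovarian cancer cell survival with or without PARP inhibitor rucaparib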 (primary screen). Cells: human ovarian carcinoma lines grown from tumours: OCI-P5x (papillary serous) and OCI-C5x (clear cell). Reagent: siRNA pool against human genes, 1.25 pmol siRNA per well. Timing: 72 h or 96 h, depending on the cell culture. Treatment: rucaparib 20 µM (about IC30) or vehicle, present until read-out. Rucaparib or vehicle: Rucaparib. Cell line: OCI-P5x (serous). Measured: 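Luminescent ATP-based viability assay read 72 or 96 h after transfection, depending on culture, given as normalised percent viability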. Reading the numbers: viability, normalised: higher = more viable cells remaining. Hit rule: 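a well counts as a hit if its normalised viability is under 80 percent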. Calls: active = viability under 80%; inactive = viability 80% or more.
This is an unselected part of the about 2,100 reagents, in one setting of the screen. 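Calls flag viability under 80% in either arm, not effects specific to rucaparib; the reference for percent is not stated.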 Entries without a mark were called inactive. Some reagents were tested in more than one well and are listed for each. Reagent sequences are not shown. The record does not give: the 100% reference.

no.	gene	technical replicate	viability, normalised (%)
1	CDC14B	1	95.7
2	CDC14B	2	94.8
3	CDC14B	3	51.1 (active)
4	ARAF	1	104
5	ARAF	2	93.2
6	ARAF	3	92.8
7	DHX34	1	64.2 (active)
8	DHX34	2	56.5 (active)
9	DHX34	3	60.7 (active)
10	ERCC2	1	117
11	ERCC2	1	55 (active)
12	ERCC2	2	123
13	ERCC2	2	53.7 (active)
14	ERCC2	3	117
15	ERCC2	3	59.4 (active)
16	NDUFA10	1	128
17	NDUFA10	2	126
18	NDUFA10	3	114
19	SETD3	1	56.9 (active)
20	SETD3	2	53.6 (active)
21	SETD3	3	55 (active)
22	MAP4K5	1	91.3
23	MAP4K5	2	94.1
24	MAP4K5	3	82.7
25	BANP	1	77.1 (active)
26	BANP	2	63.6 (active)
27	BANP	3	90.3
28	DDX54	1	61.3 (active)
29	DDX54	2	64.3 (active)
30	DDX54	3	73.5 (active)
31	PELO	1	26.3 (active)
32	PELO	2	38.7 (active)
33	PELO	3	46 (active)
34	ZZZ3	1	65.1 (active)
35	ZZZ3	3	49.7 (active)
36	NRXN2	1	45.8 (active)
37	NRXN2	2	50.2 (active)
38	NRXN2	3	39 (active)
39	PDXK	1	110
40	PDXK	2	102
41	PDXK	3	101

An excerpt from the list above:
no.	gene	technical replicate	viability, normalised (%)
24	MAP4K5	3	82.7
25	BANP	1	77.1 (active)
